Measurements from the supplement of paper PMC12823440, “Inhibitors supercharge kinase turnover through native proteolytic circuits” (Nature, 2025).
Structures can show the parent of a compound that is named as a salt. The list shows a part of the results. Hit calls seldom repeat between salt and free forms of one compound.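 Kinases, fused to nanoluciferase, were expressed in K562 cells; luminescence was measured every 4 h from 2 to 18 h as percent of control (DMSO = 100%, positive control = 0%). A time point is decreased if signal falls significantly (2 sigma). Hits were called by the authors by a rule that is not shown; the count of time points alone does not decide it.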

Amino acid sequences for entries named in this document (tags omitted).
UniProt Q16288, whole entry, looked up: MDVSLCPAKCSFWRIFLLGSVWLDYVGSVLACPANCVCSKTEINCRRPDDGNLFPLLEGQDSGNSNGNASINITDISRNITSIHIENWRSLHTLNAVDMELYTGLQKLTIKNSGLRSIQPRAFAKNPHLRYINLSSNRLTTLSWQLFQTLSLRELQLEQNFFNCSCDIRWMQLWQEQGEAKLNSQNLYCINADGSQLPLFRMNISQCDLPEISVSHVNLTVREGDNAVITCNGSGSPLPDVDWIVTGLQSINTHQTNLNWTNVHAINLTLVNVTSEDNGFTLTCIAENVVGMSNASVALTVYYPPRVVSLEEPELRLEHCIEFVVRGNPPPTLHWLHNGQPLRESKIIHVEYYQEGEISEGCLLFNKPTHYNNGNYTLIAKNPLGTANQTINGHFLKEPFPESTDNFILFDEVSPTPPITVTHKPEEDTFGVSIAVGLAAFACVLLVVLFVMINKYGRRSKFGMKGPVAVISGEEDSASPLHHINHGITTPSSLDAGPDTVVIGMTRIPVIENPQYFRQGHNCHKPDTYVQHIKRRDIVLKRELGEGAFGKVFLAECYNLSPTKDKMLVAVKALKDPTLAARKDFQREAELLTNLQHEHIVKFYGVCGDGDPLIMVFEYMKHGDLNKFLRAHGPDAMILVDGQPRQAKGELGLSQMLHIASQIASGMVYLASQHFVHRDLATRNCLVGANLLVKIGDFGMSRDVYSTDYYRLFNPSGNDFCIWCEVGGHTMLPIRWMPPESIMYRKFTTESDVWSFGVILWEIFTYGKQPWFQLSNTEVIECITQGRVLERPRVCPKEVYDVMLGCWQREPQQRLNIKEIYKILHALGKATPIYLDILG

Molecular target: NTRK3 (UniProt Q16288)
Test: kinase-Nluc reporter destabilization hit call (1 = scored as downregulated) (binary); higher = compound decreases kinase abundance
Settings: K562; 2-18 h

kinase-Nluc reporter destabilization hit call, inactive:
Cn1cc(Nc2nccc(N3C[C@H]4CC[C@@H](C3)N4C(=O)[C@@H]3CC3(F)F)n2)cn1 (10 µM) 0
CC(C)=CC(=O)CCC(=O)N1CCN(Cc2cc3nc(-c4cccc5[nH]ncc45)nc(N4CCOCC4)c3s2)CC1 (10 µM) 0
CN(C)CCN(Cc1ccc(Cl)cc1)c1ccccn1 [Chloropyramine hydrochloride] (10 µM) 0
COc1cc([N+](=O)[O-])ccc1S(=O)(=O)N1C[C@@H](CN2CCN(c3ccccn3)CC2)[C@H](c2cccc(F)c2)C1 (relative stereo) (10 µM) 0
Cc1noc(C)c1-c1ccc(-c2cc(C(N)=O)c(NC(N)=O)s2)c(O[C@H]2CCNC2)c1 (10 µM) 0
CC(C)(C)NC(=O)c1cncn1C1CCN(c2ccc(-c3nnc(C(F)(F)F)o3)cn2)CC1 (10 µM) 0
COc1cccc(-n2c(=O)[nH]c3cc(Cl)n(-c4ccc(-c5cccc(OC)c5O)cc4)c3c2=O)c1 (2.5 µM) 0
O=C(Nc1cccnc1)c1cc(C(=O)c2c(F)cccc2Br)c[nH]1 (10 µM) 0
O=C(Nc1cc(Oc2cc(F)c(NC(=O)C3(C(=O)Nc4ccc(F)cc4)CC3)cc2F)ccn1)C1CC1 [Altiratinib] (10 µM) 0
O=C1NC(=O)C(=Cc2ccc(-c3ccc(F)cc3)o2)S1 (stereo in doubt) (10 µM) 0
O=C(NC(NC(=S)Nc1ccc(F)c([N+](=O)[O-])c1)C(Cl)(Cl)Cl)C(c1ccccc1)c1ccccc1 (stereo unspecified) (10 µM) 0
Nc1ncnc2c1ncn2[C@@H]1O[C@H](CO)C[C@H]1O [Cordycepin] (10 µM) 0
CC(C)(NS(=O)(=O)c1ccc2c(Cl)cnc(N=C(N)N)c2c1)C(=O)O (10 µM) 0
COc1cc2ncnc(Nc3cccc(Cl)c3)c2cc1OC (10 µM) 0
CCOc1ccc(C(=O)Nc2ncc([N+](=O)[O-])s2)cc1 (10 µM) 0
CC(C)CN[C@H]1CS(=O)(=O)C[C@@H]1S(=O)(=O)c1ccc(Cl)cc1 (10 µM) 0
CCn1c(=O)c(-c2ccc(-c3cncs3)cc2Cl)cc2cnc(Nc3ccc(N4CCN(C)CC4)cc3)nc21 (2.5 µM) 0
C[C@]1(O)CCC[C@@H]1n1c(=O)c(C(F)F)cc2cnc(NC3CCN(S(C)(=O)=O)CC3)nc21 (10 µM) 0
COc1c(NC(=O)C(=O)c2ccc(OCCN3CCOCC3)c3ccccc23)cc(C(C)(C)C)cc1NS(C)(=O)=O (2.5 µM) 0
COc1cc(S(C)(=O)=O)ccc1Nc1nc2ccc(-c3ccc(NC(=O)[C@H](C)c4ccc(F)cc4)cc3)cn2n1 [Empesertib] (10 µM) 0
Nc1cc(Nc2ccc(S(N)(=O)=O)cc2)ncn1 (10 µM) 0
O=C(O)c1cc(O)ccc1O [2,5-Dihydroxybenzoic acid] (10 µM) 0
OCCNC1CCCc2c1[nH]c1ccc(-c3ccccc3)cc21 (stereo unspecified) (2.5 µM) 0
CC(C)CC1(O)CCN(C(=O)c2ccc(NS(=O)(=O)c3cccc4nccnc34)cc2)CC1 (10 µM) 0
CNC(=O)c1ccc(-c2cnc3cnc(C(=O)N(C)c4ccc(Cl)cc4)cn23)cc1 (2.5 µM) 0
Cc1cc(Nc2cc(Cl)nc(Oc3ccc([N+](=O)[O-])cc3)n2)n[nH]1 [Autophinib] (2.5 µM) 0
CN1CCN(c2ccc(Nc3ncc4nc(Nc5ccccc5)n([C@@H]5CCN(S(=O)(=O)C6CC6)C5)c4n3)cc2)CC1 (2.5 µM) 0
Cc1c(CN2CCN(S(C)(=O)=O)CC2)sc2c(N3CCOCC3)nc(-c3cnc(N)nc3)nc12 (2.5 µM) 0
O=C(NCCCNc1nc(Nc2cccc(NC(=O)N3CCCC3)c2)ncc1I)c1cccs1 (2.5 µM) 0
O=C(/C=C/c1ccc(O[C@@H]2O[C@H](CO)[C@@H](O)[C@H](O)[C@H]2O[C@@H]2OC[C@](O)(CO)[C@H]2O)cc1)c1ccc(O)cc1O [Isoliquiritin apioside] (10 µM) 0
O=C1NC(=O)/C(=C/c2ccc3c(c2)OC(F)(F)O3)S1 (10 µM) 0

Some of these compounds in order of molecular weight, largest number first:
kinase-Nluc reporter destabilization hit call, inactive:
COc1cc([N+](=O)[O-])ccc1S(=O)(=O)N1C[C@@H](CN2CCN(c3ccccn3)CC2)[C@H](c2cccc(F)c2)C1 (relative stereo) (10 µM) 0
O=C(Nc1cccnc1)c1cc(C(=O)c2c(F)cccc2Br)c[nH]1 (10 µM) 0
CC(C)CN[C@H]1CS(=O)(=O)C[C@@H]1S(=O)(=O)c1ccc(Cl)cc1 (10 µM) 0
